PubChem BioAssay AID1259323 | Peter MacCallum Cancer Centre, 2017

Assay: 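Kinase siRNA screen linking the PAR2 receptor to the TRPV4 channel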 (primary screen)
Cells: human HEK293 cells stably carrying inducible TRPV4
Knock-down reagent: siRNA pool against human genes
Conditions: PAR2 activation; agonist identity and dose not given
Detection: 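Signal of a calcium dye in live cells following PAR2 activation, plateau and early peak normalised to mock transfection on each plate, mean of duplicate plates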
Reading the numbers: TRPV4 plateau calcium, % of mock: higher = stronger sustained TRPV4 calcium entry than mock; PAR2 peak calcium, % of mock: higher = stronger early PAR2 calcium response than mock
Rule for the call: 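Active if plateau calcium is under 90% of mock and early peak calcium stays over 79% of mock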
The deposit covers 715 reagents; below is a random part of them. 91 of all reagents (13%) were called active. 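Active pools lower the sustained TRPV4 phase but spare the early PAR2 peak; PAR2 agonist and dose are not stated; pools repeat across wells.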 Entries without a mark were called inactive. A reagent listed more than once was tested more than once; the source does not tell the runs apart. Not stated in the record: the amount of reagent, the time to read-out.

| gene | TRPV4 plateau calcium, % of mock | PAR2 peak calcium, % of mock |
| --- | --- | --- |
| GRK2 | 97.4 | 86.3 |
| EGFR | 109 | 104 |
| NEK10 | 107 | 104 |
| GALK1 | 96.2 | 99.8 |
| CDADC1 | 109 | 106 |
| CKMT1B | 96.5 | 96.6 |
| COASY | 103 | 106 |
| CHUK | 105 | 108 |
| STK38L | 102 | 99.7 |
| NLK | 112 | 108 |
| BMPR2 | 106 | 108 |
| NEK1 | 91.3 | 93.7 |
| CDK14 | 118 | 104 |
| CDK20 | 102 | 98.7 |
| PDK4 | 90.8 | 96 |
| MYLK3 | 91.5 | 91.9 |
| NEK4 | 100 | 93 |
| CDK4 | 99.2 | 98.7 |
| PDGFRL | 102 | 105 |
| PRKX | 128 | 119 |
| STK4 | 100 | 101 |
| EXOSC10 | 95 | 95.9 |
| MOK | 109 | 108 |
| HIPK3 | 101 | 98.6 |
| CDKL5 | 122 | 115 |
| NME6 | 87.4 (active) | 95.8 |
| TNIK | 119 | 105 |
| SGK2 | 105 | 108 |
| PCK1 | 93.8 | 97.4 |
| CHEK2 | 97.8 | 97 |
| GUCY2C | 82.1 (active) | 83.8 |
| NAGK | 93.9 | 95.3 |
| ROCK1 | 105 | 97.3 |
| PSKH2 | 103 | 101 |
| MAP3K3 | 102 | 101 |
| GALK2 | 99 | 100 |
| STK17A | 83.6 (active) | 85.2 |
| LMTK1 | 104 | 101 |
| NME1 | 96 | 98.2 |
| TAF1 | 96.8 | 95.5 |
| PFKFB2 | 102 | 99.3 |
| MPP2 | 101 | 89.8 |
| MAP2K1 | 98 | 96.9 |
| PRKCQ | 98.5 | 98.6 |
| VRK2 | 90.8 | 91.8 |
| PKIB | 98.3 | 102 |
| GOLGA5 | 109 | 105 |
| PIP5K1B | 104 | 101 |
| PRKCD | 76.3 (active) | 80.6 |
| HUNK | 88.3 (active) | 87.8 |
| EFNB3 | 82.7 (active) | 90.4 |
| PIK3R2 | 99.3 | 95.2 |
| SRPK2 | 95.6 | 98.2 |
| MST1R | 101 | 99.6 |
| NRK | 99 | 107 |
| FLT3 | 90 (active) | 91.6 |
| STK40 | 90.9 | 93.4 |
| STK40 | 89.1 (active) | 90.3 |
| PRKACB | 100 | 93.2 |
| DAPK2 | 109 | 105 |
| MAP3K21 | 107 | 103 |
| CDK2 | 102 | 100 |
| PNKP | 105 | 100 |
| PEAK1 | 103 | 102 |
| LMBR1 | 107 | 96.1 |

15 successive reagents already listed, for reference:
| gene | TRPV4 plateau calcium, % of mock | PAR2 peak calcium, % of mock |
| --- | --- | --- |
| HUNK | 88.3 (active) | 87.8 |
| EFNB3 | 82.7 (active) | 90.4 |
| PIK3R2 | 99.3 | 95.2 |
| SRPK2 | 95.6 | 98.2 |
| MST1R | 101 | 99.6 |
| NRK | 99 | 107 |
| FLT3 | 90 (active) | 91.6 |
| STK40 | 90.9 | 93.4 |
| STK40 | 89.1 (active) | 90.3 |
| PRKACB | 100 | 93.2 |
| DAPK2 | 109 | 105 |
| MAP3K21 | 107 | 103 |
| CDK2 | 102 | 100 |
| PNKP | 105 | 100 |
| PEAK1 | 103 | 102 |

The results go on:
| gene | TRPV4 plateau calcium, % of mock | PAR2 peak calcium, % of mock |
| --- | --- | --- |
| TNNI3K | 92.9 | 92 |
| PLK4 | 88.4 (active) | 95.4 |
| FYN | 98.2 | 103 |
| IKBKB | 93.1 | 93.9 |
| DBF4 | 99.1 | 105 |
| IRAK1 | 99.6 | 97.2 |
| ITPKB | 104 | 101 |
| MLKL | 87.3 (active) | 98 |
| HIPK1 | 111 | 112 |
| STK17B | 104 | 101 |
| CDK5R1 | 113 | 102 |
| BMPR1A | 93.8 | 101 |
| EPHA1 | 108 | 105 |
| MAP3K2 | 101 | 98.5 |
| BRD3 | 86.5 (active) | 88.4 |
| TPK1 | 107 | 103 |
| RIOK2 | 96.9 | 95.4 |
| MARK4 | 93 | 96.6 |
| NEK3 | 99.9 | 101 |
| LRRK1 | 99.6 | 97.9 |
| CDK6 | 98.1 | 92.3 |
| RSKR | 101 | 97.9 |
| PRPS1L1 | 91.3 | 98.4 |
| ERN1 | 101 | 98.9 |
| ALK | 106 | 102 |
| HK3 | 113 | 111 |
| TGFBR2 | 90.1 | 95.2 |
| PAPSS1 | 92.9 | 95.3 |
| DTYMK | 94.3 | 92.7 |
| ITPKC | 91.7 | 88.2 |
| CDK11A | 96.1 | 94.4 |
| CKS1B | 81.8 (active) | 86 |
| CAMK4 | 107 | 105 |
| MINK1 | 113 | 106 |
| ABL1 | 95.2 | 97.8 |
| NEK7 | 78.6 (active) | 86.6 |
| KSR1 | 130 | 112 |
| MAPK8 | 94.8 | 93.1 |
| EIF2AK4 | 103 | 104 |
| MYLK | 98.6 | 99.7 |
| TEK | 98.2 | 102 |
| CALM2 | 103 | 104 |
